These are yes or no findings as the source states them, for the method shown. Some results given as binding are weak or reduced against the parent protein; the word gives no strength.
Biological target: T1, TK1 target (coating antigen) (human) (UniProt P04183)
T1 sequence (looked up): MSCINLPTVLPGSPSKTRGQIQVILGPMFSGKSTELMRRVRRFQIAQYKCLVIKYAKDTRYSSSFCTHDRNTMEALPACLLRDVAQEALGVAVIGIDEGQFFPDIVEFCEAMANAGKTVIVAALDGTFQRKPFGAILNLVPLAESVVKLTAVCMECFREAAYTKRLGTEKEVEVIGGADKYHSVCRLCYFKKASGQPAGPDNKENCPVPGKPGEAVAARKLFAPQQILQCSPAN
Assay: phage ELISA, limiting dilution of coated TK1 antigen (0.125 µg-10 µg/well)

B1: SEQ ID NO 33 (scFv)
scFv: AVTLDESGGGLQTPGGGLSLVCKASGFTFSNHGMGWVRQAPGKGLEWVAGINSGAGSYTNYGAAVKGRATISRDNGQSTVRLQLNNLRAEDTGTYFCARSVYGGSISLITDVIDTWGHGTEVTVSSGGGGSGGGGSGGGGSQAALTQPASVSANLGETVKITCSGGANYYGSYYYGWYQQKSPGSAPVTVINDNTKRPSNIPSRFSGSTSGSTGTLTITGVQADDEAVYFCGSYDSSAGYAGIFGAGTTLTVL
  binding: binds

B2: SEQ ID NO 36 (scFv)
scFv: AVTLDESGGGLQTPGGTVSLVCKASGFTFSDRGMGWMRQAPGKGLEFVAGVDDSGSSRDYAPAVKGRATISRDNGQDILRLQLNNLRAEDTATYYCTRGSVVGFIDAWGHGTEVIVSSGGGGSGGGGSGGGGSQAALTQPASVSASPGETVKITCSGGGRFAGSYYYGWYQQKSPGSAPVTVIYDSTNRPSNIPSRFSGSLSGSTTTLTITGVQADDEAVYFCGSIDSSYVGIFGAGTTLTVL
  binding: binds

B3: SEQ ID NO 39 (scFv)
scFv: AVTLDESGGGLQTPGGALSLVCKASGFSFSRHGMGWVRQAPGKGLEWVASINSGGSYTNYGAAVQGRATIWRDNGQSTVRLQLNNLRAEDTATYYCARDAGCTGGGTCYAYADRIDAWGHGTEVIVSSGGGGSGGGGSGGGGSQAALTLPSSVSVNPGETVKITCSGSSGSYGWYQQKSPGSAPVTVIYYNGKRPSDIPSRFSGSKSGSTGTLTITGVQAEDEAVYFCGSRDSSYDGIFGAGTTLTVL
  binding: binds

B4: SEQ ID NO 42 (scFv)
scFv: AVTLDESGGGLQTPGGGLSLVCKASGFTFSNHGMGWVRQAPGKGLEWVAGINSGAGSYTNYGAAVKGRATISRDNGQSTVRLQLNNLRAEDTATYYCARSVYGGSISLITDVIDTWGHGTEVIVSSGGGGSGGGGSGGGGSQAALTQPSSVSANPGETVKITCSGSYSNYYGWYQQKSPGSAPVTVIYENNNRPSDIPSRFSGSKSGSTNTLTITGVQVEDEAVYFCGGYDDSTDSGIFGAGTTLTVL
  binding: binds

From patent US20250244331A1
